Square brackets hold non-standard residues; d marks the D form. Ends that are not written are not given here. AEEA = NCCOCCOCC(=O)O

The series can be described thus: general procedure: Fmoc solid-phase peptide synthesis; Fmoc-Arg(Pbf)-Wang resin; DIC/HOBT. Conditions: whole synthesis, scale of the general procedure 0.1-mmol or 0.5-mmol.

On to “[AEEA][AEEA]RRRRNQGRHFSGGALIHARFVMTAASCFQR”, for which the “final purity (method not given)” value turned out to be 97.24%.

(Values after patent US9862748B2 (priority 2012, dated 2018).)
